From PubChem BioAssay (NCATS)
Inconclusive results, whose numbers are uncertain, are shown with a selection of clear calls. Where the call is inconclusive, the potency comes from a doubtful curve fit. The source made the active and inactive calls. Calls follow the shape of the dose curve; as a rule, active = well fitted cell-killing curve with a large enough effect; inconclusive = small, poorly fitted or top-dose-only effect, or effect the other way; inactive = no such curve, though single readings can be large or run the other way.

Assay: Quantitative High-Throughput drug screen in 47 multiple myeloma cell lines against the NCATS MIPE library collection: KMS20_JCRB cell viability assay (AID 1918973); also: nearly all actives have a fitted effect of over 45% in size
Conditions: CellTiter-Glo ATP, 48 h; viability (% of DMSO): at 45.8 µM (top of the series)
Text: PI: Beverly A. Mock Ph.D.
Laboratory of Cancer Biology and Genetics,
Center for Cancer Research, National Cancer Institute,
National Institute of Health, Bethesda, Maryland
Drug resistance and disease progression are common in multiple myeloma (MM) patients, underscoring the need for new therapeutic combinations. […] We hypothesized that effective combinations would reduce MYC expression and enhance p16 activity. […] These preclinical data identify potentially useful drug combinations for evaluation in drug-resistant MM and reveal potential mechanisms of combined drug sensitivity.
Described herein is the primary MIPE qHTS used to cherrypick compounds. Validated compounds were then further tested for potential synergistic activiy.
[1] Peat TJ, Gaikwad SM, Dubois W, Gyabaah-Kessie N, Zhang S, Gorjifard S, Phyo Z, Andres M, Hughitt VK, Simpson RM, Miller MA, Girvin AT, Taylor A, Williams D, D'Antonio N, Zhang Y, Rajagopalan A, Flietner E, Wilson K, Zhang X, Shinn P, Klumpp-Thomas C, McKnight C, Itkin Z, Chen L, Kazandijian D, Zhang J, Michalowski AM, Simmons JK, Keats J, Thomas CJ, Mock BA. Drug combinations identified by high-throughput screening promote cell cycle transition and upregulate Smad pathways in myeloma. Cancer Lett. 2023 Aug 1;568:216284. doi: 10.1016/j.canlet.2023.216284. Epub 2023 Jun 24. PMID: 37356470; PMCID: PMC10408729.
SEQUENCE No. (e.g., 1, 2, 3, etc.); […] (e.g., Cells, Incubation, Reagent, etc.); VALUE and DESCRIPTION.
1; Cells; 5 uL; white, solid bottom 1536-well Greiner assay plate.
2; Compounds; 23 nL; Kalypsis pin tool (Wako USA) equipped with a 1536-well pin head to transfer to the assay plates.
3; Incubation; 48 hours; 37C incubation.
4; Reagent;5uL; CellTiter Glo (Promega).
5; Detector; 425V; Luminescence; Viewlux PerkinElmer.
NOTES (numbers refer to Sequence numbers above)
1. The cell-based screening methods employed in this study were like those previously published. Briefly, the corresponding myeloma cell lines were screened in 1,536-well plates with 500 cells, 5-uL per well for inhibition of cell viability (assessed by measuring ATP levels with CellTiterGlo).
2. NCATS MIPE 4.0 library of approved and investigational drugs were added using the Kalypsis pin tool. Wells treated with DMSO only for 100% viability and media only wells for 0% viability were used as controls.
3. The assay plates were covered and incubated for 48 hours in a 37C, 5% CO2 incubator with controlled humidity.
4. After 48 hours, CellTilter-GloTM luminescent substrate mix (Promega) reagent was added to the assay plate and plates we incubated for 5 min at room temperature.
5. Signal was measured as median relative luminescence units on a ViewLux (PerkinElmer) multiplate reader.
[1] Heske CM, Davis MI, Baumgart JT, Wilson K, Gormally MV, Chen L, Zhang X, Ceribelli M, Duveau DY, Guha R, Ferrer M, Arnaldez FI, Ji J, Tran HL, Zhang Y, Mendoza A, Helman LJ, Thomas CJ. Matrix Screen Identifies Synergistic Combination of PARP Inhibitors and Nicotinamide Phosphoribosyltransferase (NAMPT) Inhibitors in Ewing Sarcoma. Clin Cancer Res. 2017 Dec 1;23(23):7301-7311. doi: 10.1158/1078-0432.CCR-17-1121. Epub 2017 Sep 12. PMID: 28899971; PMCID: PMC6636827.
Potency is read from the fitted curve at half-maximal effect.

Compound | Potency | viability (% of DMSO)
Cc1ccc(NC(=O)c2cccc(N(C)C)c2)cc1NC(=O)c1ccc(O)cc1 | inconclusive: 14.8 µM [cytotoxic, partial curve, poor fit] | 
Nc1cccc2c1C(=O)N(C1CCC(=O)NC1=O)C2=O (stereo not given) | inconclusive: 0.166 µM [cytotoxic, full curve, poor fit] | 
O=C(Nc1ccc(Oc2ccnc3[nH]ccc23)c(F)c1)c1cccn(-c2ccc(F)cc2)c1=O | inactive | 
CCN1CCN(Cc2ccc(-c3cc4c(N[C@H](C)c5ccccc5)ncnc4[nH]3)cc2)CC1 | inconclusive: 5.9 µM [cytotoxic, partial curve, poor fit] | 
CCOC(=O)N1CCN([N+]([O-])=NOc2ccc([N+](=O)[O-])cc2C#N)CC1 | inconclusive: 1.05 µM [cytotoxic, full curve] | 
C[C@]12C=CC(=O)N[C@@H]1CC[C@H]1[C@H]3CC[C@@H](C(=O)Nc4cc(C(F)(F)F)ccc4C(F)(F)F)[C@@]3(C)CC[C@@H]12 | inconclusive: 33.2 µM [cytotoxic, partial curve, poor fit] | 
CCn1c(-c2nonc2N)nc2cnc(Oc3cccc(NC(=O)c4ccc(OCCN5CCOCC5)cc4)c3)cc21 | inconclusive: 13.2 µM [cytotoxic, partial curve, poor fit] | 
CC(C)CN(C[C@H](O)[C@H](Cc1ccccc1)NC(=O)O[C@H]1CCOC1)S(=O)(=O)c1ccc(N)cc1 | active: 16.6 µM | 
Nc1ccn([C@@H]2O[C@H](CO)[C@H](O)C2(F)F)c(=O)n1 | active: 0.418 µM | 
C#C[C@]1(O)CC[C@@H]2[C@@H]3CCC4=CC(=O)CC[C@@H]4[C@H]3CC[C@@]21CC | inconclusive: 18.7 µM [rising, partial curve, poor fit] | 
Cc1c(-c2cccc3c(CCCOc4cccc5ccccc45)c(C(=O)O)n(Cc4cccnc4)c23)c(COc2ccc(N3CCN([S+](=O)([O-])N(C)C)CC3)cc2)nn1C | inconclusive: 66.2 µM [cytotoxic, partial curve, poor fit] | 
O=C(O)CCC=CCC[C@@H]1[C@H](N2CCCCC2)[C@@H](O)C[C@@H]1OCc1ccc(-c2ccccc2)cc1 | inconclusive: 0.059 µM [cytotoxic, full curve, poor fit] | 
CC(C=CC=C(C)C=CC1=C(C)CCCC1(C)C)=CC=CC=C(C)C=CC=C(C)C=CC1=C(C)CCCC1(C)C | inconclusive: 18.7 µM [cytotoxic, partial curve, poor fit] | 
Cc1cc(NC(=O)Nc2ccc(N(C)C)cc2)c2cc(F)cc(F)c2n1 | inconclusive: 83.3 µM [rising, partial curve, poor fit] | 
CCOC(=O)N1CCN([N+]([O-])=NOc2cc(ON=[N+]([O-])N3CCN(C(=O)OCC)CC3)c([N+](=O)[O-])cc2[N+](=O)[O-])CC1 | active: 2.64 µM | 
Cc1cc2c(C(C)C)c(O)c(O)c(C=O)c2c(O)c1-c1c(C)cc2c(C(C)C)c(O)c(O)c(C=O)c2c1O | active: 11.8 µM | 
CC1C(=O)OC2C(O)C34C5CC(C(C)(C)C)C36C(OC(=O)C6O)OC4(C(=O)O5)C12O (stereo not given) | inconclusive: 3.32 µM [cytotoxic, full curve, poor fit] | 
O[C@@H](CNC[C@H](O)[C@H]1CCc2cc(F)ccc2O1)[C@@H]1CCc2cc(F)ccc2O1 | inconclusive: 23.5 µM [cytotoxic, partial curve, poor fit] | 
NS(=O)(=O)OC[C@@H]1C[C@@H](n2ccc3c(N[C@H]4CCc5ccccc54)ncnc32)C[C@H]1O | inconclusive: 10.5 µM [cytotoxic, partial curve, poor fit] | 
O=C(c1ccc(C(=O)N2CCC(N3CCCC3)CC2)c(Nc2ccccc2)c1)N1CCC(N2CCCC2)CC1 | inactive | 

A draw from above in order of molecular weight, low to high.
Compound | Potency | viability (% of DMSO)
O=C(O)CCC=CCC[C@@H]1[C@H](N2CCCCC2)[C@@H](O)C[C@@H]1OCc1ccc(-c2ccccc2)cc1 | inconclusive: 0.059 µM [cytotoxic, full curve, poor fit] | 
CC(C)CN(C[C@H](O)[C@H](Cc1ccccc1)NC(=O)O[C@H]1CCOC1)S(=O)(=O)c1ccc(N)cc1 | active: 16.6 µM | 
Cc1cc2c(C(C)C)c(O)c(O)c(C=O)c2c(O)c1-c1c(C)cc2c(C(C)C)c(O)c(O)c(C=O)c2c1O | active: 11.8 µM | 

The listing continues:

Compound | Potency | viability (% of DMSO)
COC1=C(OC)C(=O)C(CC=C(C)CCC=C(C)CCC=C(C)CCC=C(C)CCC=C(C)CCC=C(C)CCC=C(C)CCC=C(C)CCC=C(C)CCC=C(C)C)=C(C)C1=O | inconclusive: 0.001 µM | 
CC(N[C@H]1CCCC[C@H]1NC(=O)c1ccc(Cl)cc1)c1cccc2ccccc12 (stereo not given in full) | inconclusive: 37.2 µM [cytotoxic, partial curve, poor fit] | 
COc1ccc(C=Cc2cc(OC)c(OC)c(OC)c2)cc1NC(=O)[C@H](N)CO |  | inconclusive: 13.1% [cytotoxic]
COc1cccc(OC)c1-c1cc(C(=O)NC2(C(=O)O)C3CC4CC(C3)CC2C4)nn1-c1ccnc2cc(Cl)ccc12 (stereo not given) | inactive | 
CC1(C)O[C@@H]2C[C@@H]3[C@H]4C[C@@H](F)C5=CC(=O)C=C[C@]5(C)[C@@]4(F)[C@@H](O)C[C@]3(C)[C@]2(C(=O)CO)O1 | inconclusive: 0.0021 µM [cytotoxic, full curve, poor fit] | 
Cc1nc2cnc3ccc(C#Cc4cccnc4)cc3c2n1-c1ccc(C(C)(C)C#N)cc1 | active: 0.0148 µM | 
CC1=C(CC(=O)O)c2cc(F)ccc2C1=Cc1ccc(S(C)=O)cc1 (stereo not given) | active: 9.35 µM | 
CCn1c(-c2nonc2N)nc2cncc(CNC3CCNCC3)c21 | inconclusive: 6.62 µM [cytotoxic, partial curve, poor fit] | 
CCOC(=O)[C@H]1O[C@H]1C(=O)N[C@@H](CC(C)C)C(=O)NCCC(C)C | inactive | 
CC(C)C[C@H](NC(=O)[C@H](Cc1ccccc1)NC(=O)c1cnccn1)B(O)O | active: 0.0148 µM | 
C#Cc1cccc(Nc2ncnc3cc(OCCOC)c(OCCOC)cc23)c1 | inconclusive: 6.62 µM [cytotoxic, full curve, poor fit] | 
CNc1nc(-c2ccc3c(N)n[nH]c3c2)cc(N2C[C@@H](C(=O)NC3CCCCC3)CC[C@@H]2C)n1 | inconclusive: 14.8 µM [cytotoxic, partial curve, poor fit] | 
C=C1[C@H](n2cnc3c(=O)[nH]c(N)nc32)C[C@H](O)[C@H]1CO | inconclusive: 6.62 µM [cytotoxic, partial curve, poor fit] | 
CC(C)c1nn(-c2c(Cl)cccc2Cl)c2nc(Cc3ccc(OCCO)cc3)[nH]c(=O)c12 | active: 0.166 µM | 
NNCCc1ccccc1 | inconclusive: 0.0021 µM [cytotoxic, full curve, poor fit] | 
CC(C[N+](C)(C)C)OC(N)=O (stereo not given) | inconclusive: 0.0118 µM [cytotoxic, full curve, poor fit] | 
CC[C@]12C=CCN3CC[C@@]4(c5cc([C@@]6(C(=O)OC)C[C@H]7C[C@@H](C(C)(F)F)CN(Cc8c6[nH]c6ccccc86)C7)c(OC)cc5N(C)[C@H]4[C@@](O)(C(=O)OC)[C@H]1OC(C)=O)[C@@H]32 | inconclusive: 3.72 µM [cytotoxic, partial curve, poor fit] | 
NCCCC(O)(P(=O)(O)O)P(=O)(O)O | inactive | 
CCOC(=O)C1=C[C@@H](OC(CC)CC)[C@H](NC(C)=O)[C@@H](N)C1 | inactive | 
OCCN1C[C@H](O)[C@@H](O)[C@H](O)[C@@H]1CO | inconclusive: 0.059 µM [rising, full curve, poor fit] | 
